## Results from one PubChem assay

From PubChem BioAssay record AID504749 (NCATS, 2011).

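Malaria parasite (P. falciparum) lines kept in red blood cells; parasite DNA is measured by SYBR Green fluorescence after lysis, 72 h after compound addition. Each compound was titrated across a series from about 0.000037 to 29 µM. The number is the fitted AC50, the concentration giving a half-maximal change in signal; a lower value means higher potency, whether the curve shows a decrease or an increase. Calls follow the curve class and fit quality: every row here is inconclusive, covering signal-raising curves and weak, poorly fitted, partial or highest-dose-only inhibition curves.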

Values are in µM. Every entry below has the call inconclusive. These entries are mostly ones the record files as inconclusive; other results of the assay are not listed here. Potencies fitted to partial, single-point or poorly fitting curves are rough.

{"compound": "CC(C)NC[C@@H](O)COc1cccc2ccccc12", "setting": "CP305", "potency (µM)": "19.01", "remark": "inhibitor, partial curve, poor fit"}
{"compound": "CC(C)NC[C@@H](O)COc1cccc2ccccc12", "setting": "CP217", "potency (µM)": "7.943", "remark": "inhibitor, partial curve"}
{"compound": "CC(C)NC[C@@H](O)COc1cccc2ccccc12", "setting": "CP238", "potency (µM)": "12.59", "remark": "inhibitor, single point"}
{"compound": "CC(C)NC[C@@H](O)COc1cccc2ccccc12", "setting": "CP329", "potency (µM)": "16.94", "remark": "inhibitor, partial curve, poor fit"}
{"compound": "CC(C)NC[C@@H](O)COc1cccc2ccccc12", "setting": "CP194", "potency (µM)": "13.46", "remark": "inhibitor, single point"}
{"compound": "CC(C)NC[C@@H](O)COc1cccc2ccccc12", "setting": "CP335", "potency (µM)": "8.492", "remark": "inhibitor, partial curve"}
{"compound": "CC(C)NC[C@@H](O)COc1cccc2ccccc12", "setting": "TAB113", "potency (µM)": "10", "remark": "inhibitor, single point"}
{"compound": "CC(C)NC[C@@H](O)COc1cccc2ccccc12", "setting": "PC49", "potency (µM)": "17.78", "remark": "inhibitor, single point"}
{"compound": "CC(C)NC[C@@H](O)COc1cccc2ccccc12", "setting": "HB3", "potency (µM)": "11.22", "remark": "inhibitor, single point"}
{"compound": "O=c1[nH]c2ccccc2n1CCCN1CCC(n2c(=O)[nH]c3cc(Cl)ccc32)CC1", "setting": "CP315", "potency (µM)": "10.69", "remark": "inhibitor, partial curve"}
{"compound": "O=c1[nH]c2ccccc2n1CCCN1CCC(n2c(=O)[nH]c3cc(Cl)ccc32)CC1", "setting": "GB4", "potency (µM)": "12", "remark": "inhibitor, partial curve"}
{"compound": "O=c1[nH]c2ccccc2n1CCCN1CCC(n2c(=O)[nH]c3cc(Cl)ccc32)CC1", "setting": "CP305", "potency (µM)": "13.46", "remark": "inhibitor, single point"}
{"compound": "O=c1[nH]c2ccccc2n1CCCN1CCC(n2c(=O)[nH]c3cc(Cl)ccc32)CC1", "setting": "CP192", "potency (µM)": "19.01", "remark": "inhibitor, single point"}
{"compound": "O=c1[nH]c2ccccc2n1CCCN1CCC(n2c(=O)[nH]c3cc(Cl)ccc32)CC1", "setting": "Dd2", "potency (µM)": "11.22", "remark": "inhibitor, partial curve"}
{"compound": "O=c1[nH]c2ccccc2n1CCCN1CCC(n2c(=O)[nH]c3cc(Cl)ccc32)CC1", "setting": "CP185", "potency (µM)": "7.943", "remark": "inhibitor, partial curve"}
{"compound": "O=c1[nH]c2ccccc2n1CCCN1CCC(n2c(=O)[nH]c3cc(Cl)ccc32)CC1", "setting": "CP329", "potency (µM)": "8.492", "remark": "inhibitor, partial curve"}
{"compound": "O=c1[nH]c2ccccc2n1CCCN1CCC(n2c(=O)[nH]c3cc(Cl)ccc32)CC1", "setting": "CP269", "potency (µM)": "13.46", "remark": "inhibitor, single point"}
{"compound": "O=c1[nH]c2ccccc2n1CCCN1CCC(n2c(=O)[nH]c3cc(Cl)ccc32)CC1", "setting": "CP238", "potency (µM)": "12.59", "remark": "inhibitor, partial curve"}
{"compound": "O=c1[nH]c2ccccc2n1CCCN1CCC(n2c(=O)[nH]c3cc(Cl)ccc32)CC1", "setting": "CP256", "potency (µM)": "5.012", "remark": "inhibitor, partial curve"}
{"compound": "O=c1[nH]c2ccccc2n1CCCN1CCC(n2c(=O)[nH]c3cc(Cl)ccc32)CC1", "setting": "CP203", "potency (µM)": "12", "remark": "inhibitor, single point"}
{"compound": "O=c1[nH]c2ccccc2n1CCCN1CCC(n2c(=O)[nH]c3cc(Cl)ccc32)CC1", "setting": "JCK", "potency (µM)": "8.912", "remark": "inhibitor, single point"}
{"compound": "O=c1[nH]c2ccccc2n1CCCN1CCC(n2c(=O)[nH]c3cc(Cl)ccc32)CC1", "setting": "ATS95", "potency (µM)": "7.08", "remark": "inhibitor, partial curve"}
{"compound": "O=c1[nH]c2ccccc2n1CCCN1CCC(n2c(=O)[nH]c3cc(Cl)ccc32)CC1", "setting": "CP211", "potency (µM)": "8.492", "remark": "inhibitor, partial curve"}
{"compound": "O=c1[nH]c2ccccc2n1CCCN1CCC(n2c(=O)[nH]c3cc(Cl)ccc32)CC1", "setting": "ATS189", "potency (µM)": "7.943", "remark": "inhibitor, single point"}

Once more, the final 2:

Compound,setting,potency (µM),remark
O=c1[nH]c2ccccc2n1CCCN1CCC(n2c(=O)[nH]c3cc(Cl)ccc32)CC1,CP211,8.492,"inhibitor, partial curve"
O=c1[nH]c2ccccc2n1CCCN1CCC(n2c(=O)[nH]c3cc(Cl)ccc32)CC1,ATS189,7.943,"inhibitor, single point"